Values of other authors, collected in US20090149481A1, “PHARMACEUTICAL COMPOSITION AND BEVERAGE COMPOSITION COMPRISING L-ARGININE” (priority 2005, published 2009).
Structures can show the parent of a compound that is named as a salt. At least one structure is not confirmed: it was looked up by name or label, or the drawing left a doubt.

System: erectile dysfunction
Conditions: orally administrable therapeutic agent for erectile dysfunction

For CCCc1nn(C)c2c(=O)[nH]c(-c3cc(S(=O)(=O)N4CCN(C)CC4)ccc3OCC)nc12 [sildenafil, sildenafil citrate], the efficacy ratio is listed as 50%.
